Results taken from the supplement of paper PMC12889115.
Some of the results follow. Values are raw readings; no control value is given beside them.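 First-pass screen: polymyxin B was added at a level that permeabilizes the Salmonella outer membrane while sparing the inner membrane. DMSO wells, with and without polymyxin B, defined maximum growth. Because plates differed from one another, each plate's data were ranked separately and the compounds with the lowest OD600 were carried forward as hits.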

Test system: Salmonella enterica serovar Typhimurium SL1344
Test: bacterial growth OD600 after 18 h with compound and polymyxin B; higher = more bacterial growth (less inhibition)
Conditions: 50 µM, Mueller-Hinton broth

Row | SMILES | bacterial growth OD600 (polymyxin B 0.75 µg/mL) | bacterial growth OD600 (polymyxin B 1 µg/mL)
1 | Cc1ccc(OCCN(C)C(=O)C2CC23CCN(Cc2cccs2)CC3)cc1 (stereo unspecified) | 0.635 | –
2 | Cc1ccccc1N1C(=O)CN(C(=O)c2c(-c3ccccc3)noc2C)CC1C (stereo unspecified) | 0.853 | –
3 | COc1ccc(OC2CCN(C(C)=O)CC2)c(C(=O)NCc2ccccc2F)c1 | – | 0.458
4 | CN(Cc1ccc(F)cc1)C(=O)C1CCCN(C2CCN(C(=O)C3CC3)CC2)C1 (stereo unspecified) | 0.88 | –
5 | O=C(NC1CC1)C1CCCN(C2CCN(C3CCCC3)CC2)C1 (stereo unspecified) | – | 0.947
6 | COc1ccc(C2c3[nH]c4ccccc4c3CCN2C(=O)Cn2[nH]c(=O)ccc2=O)cc1C (stereo unspecified) | – | 1.06
7 | FC(F)(F)c1cccc(N2CCN(C3CCCN(Cc4ccc5nonc5c4)C3)CC2)c1 (stereo unspecified) | – | 0.024
8 | O=C(/C=C/c1ccccc1F)NCC1CC(Cc2cccc(F)c2)=NO1 (stereo unspecified) | 0.662 | –
9 | COc1ccccc1CCNC(=O)c1cc(NS(C)(=O)=O)cc2ncn(CCc3ccccc3)c12 | 0.769 | –
10 | COc1ccccc1C1CN(Cc2ccoc2)Cc2ccccc2O1 (stereo unspecified) | 0.127 | –
11 | CCC1CN(CCNC(=O)Cc2c(F)cc(F)cc2F)Cc2cc(OC)ccc2O1 (stereo unspecified) | 0.784 | –
12 | COc1cc(-c2cnnc(NCc3cc(C)no3)n2)cc(OC)c1OC | 0.742 | –
13 | O=C(NCCN1Cc2ccccc2OC(c2ccccc2)C1)C1CC=CCC1 (stereo unspecified) | 0.7 | –
14 | CN1CCN(Cc2nc(C(c3ccccc3)c3ccccc3)no2)CC1c1ccccc1 (stereo unspecified) | 0.079 | –
15 | c1cc(N2CCCOCC2)ncc1-c1nc(C2CC2)no1 | 0.76 | –
16 | CCS(=O)(=O)N1CCC2(CCCN(Cc3ccc(C(C)C)cc3)C2=O)C1 (stereo unspecified) | – | 0.89
17 | O=C1CC(NCc2nc3ccccc3[nH]2)CN1Cc1ccccc1C(F)(F)F (stereo unspecified) | – | 0.962
18 | Cc1ccccc1CCC1CCCN(C(=O)CCn2cccn2)C1 (stereo unspecified) | 0.625 | –
19 | CN(Cc1ccccc1)C(=O)CCC1CCN(C(=O)Nc2ccc3c(c2)OCO3)CC1 | – | 0.828
20 | CCOc1ccc2nc(N3CCCN(Cc4cccc5c4OCO5)CC3)nc(C)c2c1 | 0.19 | –
21 | CN(Cc1cccnc1)C(=O)CC(c1ccccc1)c1ccc2c(c1)OCO2 (stereo unspecified) | 0.67 | –

Part of the list above in another layout:
Row	SMILES	bacterial growth OD600 (polymyxin B 0.75 µg/mL)	bacterial growth OD600 (polymyxin B 1 µg/mL)
16	CCS(=O)(=O)N1CCC2(CCCN(Cc3ccc(C(C)C)cc3)C2=O)C1 (stereo unspecified)	–	0.89
17	O=C1CC(NCc2nc3ccccc3[nH]2)CN1Cc1ccccc1C(F)(F)F (stereo unspecified)	–	0.962
